For at least one entry, the source does not settle the construct or the ends of the probe. At least one result comes from cells or an extract, where the contact may be indirect.
Biological target: flk-1/fms chimeric receptor (mouse flk-1 extracellular / human c-fms) (Mus musculus / Homo sapiens) (UniProt P35918)
Test: competition with a labelled probe
Details: PS (phosphorothioate oligodeoxynucleotide), protein on the cell surface, single-stranded DNA

By UniProt entry, the sequences of proteins in these tests, tags left out. Where a name states a change or a piece, a line headed by the entry shows the natural chain unless it says otherwise.
UniProt P35918: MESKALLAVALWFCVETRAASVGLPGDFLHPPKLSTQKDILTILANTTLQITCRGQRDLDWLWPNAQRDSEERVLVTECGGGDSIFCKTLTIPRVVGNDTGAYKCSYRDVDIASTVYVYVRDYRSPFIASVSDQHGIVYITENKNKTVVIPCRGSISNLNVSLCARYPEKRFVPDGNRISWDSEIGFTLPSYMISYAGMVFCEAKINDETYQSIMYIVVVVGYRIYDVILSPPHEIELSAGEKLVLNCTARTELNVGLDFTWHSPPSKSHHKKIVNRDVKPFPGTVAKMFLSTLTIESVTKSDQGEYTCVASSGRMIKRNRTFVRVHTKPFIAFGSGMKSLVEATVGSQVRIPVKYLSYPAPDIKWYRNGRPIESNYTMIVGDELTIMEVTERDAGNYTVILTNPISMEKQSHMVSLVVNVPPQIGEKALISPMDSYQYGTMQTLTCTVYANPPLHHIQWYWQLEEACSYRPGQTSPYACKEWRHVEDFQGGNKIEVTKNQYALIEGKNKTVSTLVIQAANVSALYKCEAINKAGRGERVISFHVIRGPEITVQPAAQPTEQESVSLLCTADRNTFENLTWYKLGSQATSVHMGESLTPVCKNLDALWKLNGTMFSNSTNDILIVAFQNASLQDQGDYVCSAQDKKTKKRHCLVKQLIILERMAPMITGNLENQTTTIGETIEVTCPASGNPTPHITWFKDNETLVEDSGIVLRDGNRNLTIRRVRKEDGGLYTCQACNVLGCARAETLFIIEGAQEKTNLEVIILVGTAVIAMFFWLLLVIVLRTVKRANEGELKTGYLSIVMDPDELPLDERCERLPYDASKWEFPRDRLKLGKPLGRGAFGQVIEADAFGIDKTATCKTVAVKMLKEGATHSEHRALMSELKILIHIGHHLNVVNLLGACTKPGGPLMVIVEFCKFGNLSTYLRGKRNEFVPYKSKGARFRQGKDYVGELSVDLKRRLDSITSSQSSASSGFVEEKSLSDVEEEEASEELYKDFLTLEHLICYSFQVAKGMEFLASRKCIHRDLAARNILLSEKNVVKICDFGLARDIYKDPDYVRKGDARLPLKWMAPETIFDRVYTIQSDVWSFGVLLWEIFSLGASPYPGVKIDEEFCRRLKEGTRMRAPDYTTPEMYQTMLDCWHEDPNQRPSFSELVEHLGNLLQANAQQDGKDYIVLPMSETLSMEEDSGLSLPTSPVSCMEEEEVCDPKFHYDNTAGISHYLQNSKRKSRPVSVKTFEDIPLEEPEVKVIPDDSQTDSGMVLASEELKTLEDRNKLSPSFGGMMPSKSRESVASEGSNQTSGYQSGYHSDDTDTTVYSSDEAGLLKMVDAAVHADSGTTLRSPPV

| Sequence | binding result (variant of #2) | binding result |
| --- | --- | --- |
| GTTGGGTTAT [#2T] | binds | – |
| GCCGGGCCAT [#2] | – | binds |

— patent US6030955A, “Methods of affecting intracellular phosphorylation of tyrosine using phosphorothioate oligonucleotides, and antiangiogenic and antiproliferative uses thereof” (The Trustees of Columbia University in The City of New York …, priority 1996, dated 2000)
